Source: patent US20210015891A1
Results are given in words; binding and its absence hold for the method and conditions named. Some binding calls cover weakened binding; strength is not graded here.

Columns and labels:
[1] = biological target: T1, Mouse IL-18Rα ectodomain (amino acids 19-329) (mouse) (UniProt Q61098); experiment: flow cytometry binding isotherm: yeast-displayed mouse IL-18 variant stained with titrated mIL-18Rα, 10^-9.5 to 10^-6 M, receptor binding (% max)
T1 sequence (chain, biotin on the AviTag (enzymatic biotinylation)): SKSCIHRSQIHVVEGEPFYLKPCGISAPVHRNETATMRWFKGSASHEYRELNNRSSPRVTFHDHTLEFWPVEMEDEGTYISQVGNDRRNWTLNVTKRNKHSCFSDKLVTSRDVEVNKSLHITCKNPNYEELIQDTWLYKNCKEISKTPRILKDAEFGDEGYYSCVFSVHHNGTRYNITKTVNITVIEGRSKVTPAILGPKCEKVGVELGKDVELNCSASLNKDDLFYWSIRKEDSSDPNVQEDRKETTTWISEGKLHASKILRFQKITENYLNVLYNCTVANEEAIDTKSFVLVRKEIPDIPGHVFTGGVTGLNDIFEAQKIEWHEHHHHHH

[2] = biological target: T2, Mouse IL-18BP (amino acids 31-194) (mouse) (UniProt Q9Z0M9); experiment: flow cytometry binding isotherm: yeast-displayed mouse IL-18 variant stained with titrated mIL-18BP, 10^-9.5 to 10^-6 M, receptor binding (% max)
T2 sequence (chain, biotin on the AviTag (enzymatic biotinylation)): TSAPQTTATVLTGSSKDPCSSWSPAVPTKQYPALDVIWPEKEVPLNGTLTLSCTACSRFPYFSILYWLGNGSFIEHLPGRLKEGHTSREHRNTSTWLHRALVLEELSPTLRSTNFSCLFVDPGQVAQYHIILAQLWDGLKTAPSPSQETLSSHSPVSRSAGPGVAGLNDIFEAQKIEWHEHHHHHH

[3] = biological target: T2, Mouse IL-18BP (amino acids 31-194) (mouse); experiment: SPR, immobilized biotinylated mIL-18BP, recombinant mIL-18 as analyte, single-cycle injections of 0.125 to 2 nM
[4] = biological target: T1, Mouse IL-18Rα ectodomain (amino acids 19-329) (mouse); experiment: on-yeast binding isotherm, flow cytometry (FIG. 11A)
[5] = biological target: T1, Mouse IL-18Rα ectodomain (amino acids 19-329) (mouse); experiment: yeast binding isotherms and SPR

Measured: binding

B1: mouse Interleukin-18 wild type (mature form) (ligand)
chain: NFGRLHCTTAVIRNINDQVLFVDKRQPVFEDMTDIDQSASEPQTRLIIYMYKDSEVRGLAVTLSVKDSKMSTLSCKNKIISFEEMDPPENIDDIQSDLIFFQKRVPGHNKMEFESSLYEGHFLACQKEDDAFKLILKKKDENGDKSVMFTLTNLHQS
binds: [1] | [2] | [3]

B2: mA7, murine DR-IL-18 variant (ligand)
chain: YFGRLHCTTAVIRNINDQVLFVDKRQPVFEDMTDIDQSASEPQTRLIIYAYGDNRVRGKAVTLSVKDSKMSTLSCKNKIISFEEMDPPENIDDIQSDLIFFQKRVPGHNKMEFESSLYEGHFLACQKEDDAFKLILKKKDENGDKSVMFTLTNLHQS
binds: [1] | [4] | [5]

B3: mB1, murine DR-IL-18 variant (ligand)
chain: HFGRLHCTTAVIRNINDQVLFVDKRQPVFEDMTDIDQSASEPQTRLIIYGYADSDARAKAVTLSVKDSKMSTLSCKNKIISFEEMDPPENIDDIQSDLIFFQKSVPGHNKMEFESSLYEGHFLACQKEDDAFKLILKKKDENGDKSVMFTVTNLHQS
binds: [1] | [4] | [5]

B4: mC1, murine DR-IL-18 variant (ligand)
chain: NFGRLHCTTAVIRNINDQVLFVDKRQPVFEDMTDIDQSASEPQTRLIIYAYVDRRLRGKAVTLSVKDSKMSTLSCKNKIISFEEMDPPENIDDIQSDLIFFQKKVPGHNKMEFESSLYEGHFLACQKEDDAFKLILKKKDENGDKSVMFTLTNLHQS
binds: [1] | [4] | [5]

B5: mE8, murine DR-IL-18 variant (ligand)
chain: NFGRLHCTTAVIRNINDQVLFVDKRQPVFEDMTDIDQSASEPQTRLIIYVYTDGRRRGKAVTLSVKDSKMSTLSCKNKIISFEEMDPPENIDDIQSDLIFFQKKVPGHDKMEFESSLYEGHFLACQKEDDAFKLILKKKDENGDKSVMFTLTNLHQS
binds: [1] | [4] | [5]

B6: mCS1, murine DR-IL-18 consensus variant (ligand)
chain: NFGRLHCTTAVIRNINDQVLFVDKRQPVFEDMTDIDQSASEPQTRLIIYGYADSRVRGKAVTLSVKDSKMSTLSCKNKIISFEEMDPPENIDDIQSDLIFFQKRVPGHNKMEFESSLYEGHFLACQKEDDAFKLILKKKDENGDKSVMFTLTNLHQS
binds: [1] | [4] | [5]

B7: mCS2, murine DR-IL-18 consensus variant (ligand)
chain: HFGRLHCTTAVIRNINDQVLFVDKRQPVFEDMTDIDQSASEPQTRLIIYAYGDSRARGKAVTLSVKDSKMSTLSCKNKIISFEEMDPPENIDDIQSDLIFFQKRVPGHNKMEFESSLYEGHFLACQKEDDAFKLILKKKDENGDKSVMFTLTNLHQS
binds: [1] | [4] | [5]
